In publication doi:10.1101/233213:
These are yes or no findings as the source states them, for the method shown. Binding seen in cells or lysates may run through a third protein. Some entries that bind do so weakly or less than the wild type. Tags and fused reporters may be left off the sequences shown.

Assays:
[1] = biological target: T1, GlyT2 (neuronal glycine transporter 2), wild type (rat) (UniProt P58295); experiment: co-IP
T1 sequence: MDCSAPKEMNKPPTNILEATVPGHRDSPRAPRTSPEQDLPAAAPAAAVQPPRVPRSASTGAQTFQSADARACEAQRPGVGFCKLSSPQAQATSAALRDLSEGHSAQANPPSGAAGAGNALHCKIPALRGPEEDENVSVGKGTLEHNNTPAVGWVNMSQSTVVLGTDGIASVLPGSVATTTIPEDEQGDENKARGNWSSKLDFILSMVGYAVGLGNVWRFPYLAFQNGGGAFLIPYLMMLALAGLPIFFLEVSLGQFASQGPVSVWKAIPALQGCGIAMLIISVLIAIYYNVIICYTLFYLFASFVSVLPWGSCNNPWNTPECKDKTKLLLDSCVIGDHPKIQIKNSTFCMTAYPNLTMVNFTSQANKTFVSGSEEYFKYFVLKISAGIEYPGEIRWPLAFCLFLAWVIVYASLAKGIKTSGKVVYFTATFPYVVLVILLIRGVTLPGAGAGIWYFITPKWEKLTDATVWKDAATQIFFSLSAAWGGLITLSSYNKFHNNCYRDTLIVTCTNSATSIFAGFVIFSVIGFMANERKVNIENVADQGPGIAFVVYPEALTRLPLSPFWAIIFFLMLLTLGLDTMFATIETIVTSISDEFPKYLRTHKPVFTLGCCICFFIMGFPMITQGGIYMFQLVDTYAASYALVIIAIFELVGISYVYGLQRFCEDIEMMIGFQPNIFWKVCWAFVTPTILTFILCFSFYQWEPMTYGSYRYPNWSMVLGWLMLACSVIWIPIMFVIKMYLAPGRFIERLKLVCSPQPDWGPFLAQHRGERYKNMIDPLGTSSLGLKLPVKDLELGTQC

GlyT2-4KR (rat) = biological target: T2, GlyT2-4KR (rat) (UniProt P58295); experiment: co-IP
T2 sequence: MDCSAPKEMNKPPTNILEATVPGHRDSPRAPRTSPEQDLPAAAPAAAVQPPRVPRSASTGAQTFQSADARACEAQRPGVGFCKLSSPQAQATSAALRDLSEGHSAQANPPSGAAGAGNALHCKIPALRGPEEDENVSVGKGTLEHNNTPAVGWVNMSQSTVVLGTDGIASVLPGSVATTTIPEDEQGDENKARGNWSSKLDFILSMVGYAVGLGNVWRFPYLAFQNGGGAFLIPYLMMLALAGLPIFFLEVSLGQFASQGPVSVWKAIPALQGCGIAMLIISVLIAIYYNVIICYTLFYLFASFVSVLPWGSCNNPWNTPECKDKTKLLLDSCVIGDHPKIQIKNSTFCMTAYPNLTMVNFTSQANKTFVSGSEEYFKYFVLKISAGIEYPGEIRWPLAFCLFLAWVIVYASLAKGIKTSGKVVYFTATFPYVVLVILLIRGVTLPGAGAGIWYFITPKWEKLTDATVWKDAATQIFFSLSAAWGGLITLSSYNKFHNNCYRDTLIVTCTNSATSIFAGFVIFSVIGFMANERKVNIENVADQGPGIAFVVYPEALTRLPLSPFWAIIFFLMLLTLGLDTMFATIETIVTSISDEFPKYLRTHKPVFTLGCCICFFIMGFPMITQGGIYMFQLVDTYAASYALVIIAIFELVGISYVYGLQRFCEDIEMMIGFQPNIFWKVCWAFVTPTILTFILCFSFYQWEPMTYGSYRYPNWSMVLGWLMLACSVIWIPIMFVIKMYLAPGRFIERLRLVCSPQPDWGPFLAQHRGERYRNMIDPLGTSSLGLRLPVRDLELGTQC

GlyT2-Δ8cter (rat) = biological target: T3, GlyT2-Δ8cter (rat) (UniProt P58295); experiment: co-IP
T3 sequence: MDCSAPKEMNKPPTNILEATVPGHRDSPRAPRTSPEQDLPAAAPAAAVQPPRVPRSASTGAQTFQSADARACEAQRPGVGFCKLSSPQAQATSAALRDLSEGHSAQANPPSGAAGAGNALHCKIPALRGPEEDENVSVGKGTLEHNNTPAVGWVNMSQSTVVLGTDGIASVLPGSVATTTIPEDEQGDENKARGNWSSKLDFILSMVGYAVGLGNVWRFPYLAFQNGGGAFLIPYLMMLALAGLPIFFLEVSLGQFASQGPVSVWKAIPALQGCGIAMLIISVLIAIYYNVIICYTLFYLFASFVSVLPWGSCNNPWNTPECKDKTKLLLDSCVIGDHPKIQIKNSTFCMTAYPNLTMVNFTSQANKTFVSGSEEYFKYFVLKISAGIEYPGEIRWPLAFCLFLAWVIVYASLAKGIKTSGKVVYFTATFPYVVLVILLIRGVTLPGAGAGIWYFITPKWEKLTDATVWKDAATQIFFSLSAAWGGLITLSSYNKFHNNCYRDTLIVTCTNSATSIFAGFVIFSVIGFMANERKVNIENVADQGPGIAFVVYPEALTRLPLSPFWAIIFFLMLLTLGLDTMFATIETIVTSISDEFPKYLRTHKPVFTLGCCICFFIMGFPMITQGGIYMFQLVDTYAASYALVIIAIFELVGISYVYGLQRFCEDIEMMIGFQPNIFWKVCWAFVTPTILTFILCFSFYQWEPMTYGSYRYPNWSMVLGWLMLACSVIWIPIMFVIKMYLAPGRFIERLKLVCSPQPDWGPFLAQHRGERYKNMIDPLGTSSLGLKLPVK

[2] = biological target: T4, GST fused to the C-terminus of GlyT2 (rat) (UniProt P58295); experiment: pull-down
T4 sequence: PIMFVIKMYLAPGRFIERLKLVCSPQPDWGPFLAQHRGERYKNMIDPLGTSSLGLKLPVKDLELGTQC

[3] = biological target: T5, GlyT2 expressed in primary cortical neurons (rat) (UniProt P58295); experiment: co-IP
T5 sequence: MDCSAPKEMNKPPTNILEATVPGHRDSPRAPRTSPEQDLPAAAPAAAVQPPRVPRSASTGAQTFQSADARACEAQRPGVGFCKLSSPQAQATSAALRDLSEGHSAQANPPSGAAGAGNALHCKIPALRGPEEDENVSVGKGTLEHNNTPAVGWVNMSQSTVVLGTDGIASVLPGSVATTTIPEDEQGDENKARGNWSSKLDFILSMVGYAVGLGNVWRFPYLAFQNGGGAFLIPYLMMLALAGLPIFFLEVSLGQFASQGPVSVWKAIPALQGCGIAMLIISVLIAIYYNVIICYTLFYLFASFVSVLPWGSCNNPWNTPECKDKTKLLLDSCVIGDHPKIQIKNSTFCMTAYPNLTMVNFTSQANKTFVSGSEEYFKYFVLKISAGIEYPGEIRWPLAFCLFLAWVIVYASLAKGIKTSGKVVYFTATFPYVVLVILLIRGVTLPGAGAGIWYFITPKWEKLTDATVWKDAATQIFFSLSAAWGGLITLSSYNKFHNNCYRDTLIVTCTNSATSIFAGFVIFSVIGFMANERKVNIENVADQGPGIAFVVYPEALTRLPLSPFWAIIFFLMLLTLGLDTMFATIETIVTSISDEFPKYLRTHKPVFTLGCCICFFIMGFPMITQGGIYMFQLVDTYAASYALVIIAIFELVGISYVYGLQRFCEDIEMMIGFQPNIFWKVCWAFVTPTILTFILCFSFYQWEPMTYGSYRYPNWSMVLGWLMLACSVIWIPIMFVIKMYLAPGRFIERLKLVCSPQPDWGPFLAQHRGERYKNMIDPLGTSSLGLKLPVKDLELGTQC

B1: FLAG-tagged p80-LNX1 (Ligand of Numb protein X1, isoform p80) (enzyme, UniProt O70263 1-728)
chain: MNQPDLADDPDPSPEPLCIVCGQNHSPEENHFYTYTEDVDDDLICHICLQALLDPLDTPCGHTYCTLCLTNFLVEKDFCPVDRKPVVLQHCKKSSILVNKLLNKLLVTCPFTEHCTEVLQRCDLQHHFQTSCKGASHYGLTKDRKRRSQDGCPDGCASLMATTLSPEVSAAATISLMTDEPGLDNPAYVSSVEDGEPVANSSDSGRSNRTRARPFERSTMRSRSFKKINRALSALRRTKSGSVVANHVDQGRDNSENTTVPEVFPRLFHLIPDGEITSIKINRADPSESLSIRLVGGSETPLVHIIIQHIYRDGVIARDGRLLPGDIILKVNGMDISNVPHNYAVRLLRQPCQVLRLTVLREQKFRSRSNAHVPDSYGPRDDSFHVILNKSSPEEQLGIKLVRRVDEPGVFIFNVLNGGVADRHGQLEENDRVLAINGHDLRFGSPESAAHLIQASERRVHLVVSRQVRQSSPDIFQEAGWISNGQQSPGPGERNTASKPAATCHEKVVSVWKDPSESLGMTVGGGASHREWDLPIYVISVEPGGVISRDGRIKTGDILLNVNGIELTEVSRTEAVAILKSAPSSVVLKALEVKEQEAQEDCSPAALDSNHNVTPPGDWSPSWVMWLELPQYLCNCKDVILRRNTAGSLGFCIVGGYEEYSGNKPFFIKSIVEGTPAYNDGRIRCGDILLAVNGRSTSGMIHACLARMLKELKGRITLTIASWPGTFL
B1 was tested, and the binding [1] was “binds”, the binding (GlyT2-4KR (rat)) was “binds” and the binding (GlyT2-Δ8cter (rat)) was “binds”. The binding [2] was “binds”.

B2: FLAG-tagged p80-LNX1^C45A (enzyme, UniProt O70263 1-728)
chain: MNQPDLADDPDPSPEPLCIVCGQNHSPEENHFYTYTEDVDDDLIAHICLQALLDPLDTPCGHTYCTLCLTNFLVEKDFCPVDRKPVVLQHCKKSSILVNKLLNKLLVTCPFTEHCTEVLQRCDLQHHFQTSCKGASHYGLTKDRKRRSQDGCPDGCASLMATTLSPEVSAAATISLMTDEPGLDNPAYVSSVEDGEPVANSSDSGRSNRTRARPFERSTMRSRSFKKINRALSALRRTKSGSVVANHVDQGRDNSENTTVPEVFPRLFHLIPDGEITSIKINRADPSESLSIRLVGGSETPLVHIIIQHIYRDGVIARDGRLLPGDIILKVNGMDISNVPHNYAVRLLRQPCQVLRLTVLREQKFRSRSNAHVPDSYGPRDDSFHVILNKSSPEEQLGIKLVRRVDEPGVFIFNVLNGGVADRHGQLEENDRVLAINGHDLRFGSPESAAHLIQASERRVHLVVSRQVRQSSPDIFQEAGWISNGQQSPGPGERNTASKPAATCHEKVVSVWKDPSESLGMTVGGGASHREWDLPIYVISVEPGGVISRDGRIKTGDILLNVNGIELTEVSRTEAVAILKSAPSSVVLKALEVKEQEAQEDCSPAALDSNHNVTPPGDWSPSWVMWLELPQYLCNCKDVILRRNTAGSLGFCIVGGYEEYSGNKPFFIKSIVEGTPAYNDGRIRCGDILLAVNGRSTSGMIHACLARMLKELKGRITLTIASWPGTFL
With B2 the binding [1] was “binds”.

B3: FLAG-tagged p80-LNX1 expressed in primary cortical neurons (enzyme, UniProt O70263 1-728)
chain: MNQPDLADDPDPSPEPLCIVCGQNHSPEENHFYTYTEDVDDDLICHICLQALLDPLDTPCGHTYCTLCLTNFLVEKDFCPVDRKPVVLQHCKKSSILVNKLLNKLLVTCPFTEHCTEVLQRCDLQHHFQTSCKGASHYGLTKDRKRRSQDGCPDGCASLMATTLSPEVSAAATISLMTDEPGLDNPAYVSSVEDGEPVANSSDSGRSNRTRARPFERSTMRSRSFKKINRALSALRRTKSGSVVANHVDQGRDNSENTTVPEVFPRLFHLIPDGEITSIKINRADPSESLSIRLVGGSETPLVHIIIQHIYRDGVIARDGRLLPGDIILKVNGMDISNVPHNYAVRLLRQPCQVLRLTVLREQKFRSRSNAHVPDSYGPRDDSFHVILNKSSPEEQLGIKLVRRVDEPGVFIFNVLNGGVADRHGQLEENDRVLAINGHDLRFGSPESAAHLIQASERRVHLVVSRQVRQSSPDIFQEAGWISNGQQSPGPGERNTASKPAATCHEKVVSVWKDPSESLGMTVGGGASHREWDLPIYVISVEPGGVISRDGRIKTGDILLNVNGIELTEVSRTEAVAILKSAPSSVVLKALEVKEQEAQEDCSPAALDSNHNVTPPGDWSPSWVMWLELPQYLCNCKDVILRRNTAGSLGFCIVGGYEEYSGNKPFFIKSIVEGTPAYNDGRIRCGDILLAVNGRSTSGMIHACLARMLKELKGRITLTIASWPGTFL
B3 was tested, and the binding [3] was “binds”.
